From patent US11517587B2, “Drug therapy to inhibit chemotherapy-induced adverse effects and related pharmaceutical compositions, diagnostics, screening techniques and kits” (YALE UNIVERSITY, priority 2011, dated 2022)
For at least one compound, name, drawing or mass did not settle the structure.

Test system: mice
Settings: lithium 12.8 mg/kg ip 1 hour prior to paclitaxel

## [Li] [lithium]
  Protection against toxic effects of high dose paclitaxel: protected the mice against toxic effects
